PubChem BioAssay AID602196 | INSERM, 2012
Test: 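Genes whose knock-down alters cisplatin killing of lung cancer cells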. System: human A549 lung cancer cells. Reagent: siRNA pair against human genes. Timing: 48 h transfection before cisplatin; time from cisplatin to read-out not stated. Treatment: cisplatin at a dose killing half of control-siRNA cells; exact dose and duration not given. Read-out: 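Shift in cisplatin death relative to control siRNA, from -50 (all cells die) to +50 (no cells die); siRNAs harmful on their own scored 0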. Scale: two-siRNA summed score (-2 to +2): higher = both siRNAs protect from cisplatin killing; -2 means both sensitise. Hit rule: 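Each siRNA scores 0 if harmful alone by LDH or WST-1, otherwise +1 if it reduces and -1 if it increases cisplatin killing; a gene is active when both siRNAs agree (sum +2 or -2)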. Meaning of the calls: active = both siRNAs shift cisplatin killing the same way; inactive = no consistent shift, or siRNA harmful alone.
In all, the deposit lists about 23,000 reagents; this is an unselected part. 455 of them (2%) count as active. 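Active includes both protection and sensitisation; some change values fall well beyond the stated -50 to +50 range.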 Not all columns of the deposit are shown. The record does not give: the amount of reagent.

no.	gene knocked down	two-siRNA summed score (-2 to +2)	Call
1	POLE3 (DNA polymerase epsilon 3, accessory subunit)	0	inactive
2	RILPL1 (Rab interacting lysosomal protein like 1)	0	inactive
3	LOC389988	-1	inactive
4	SLITRK6 (SLIT and NTRK like family member 6)	-1	inactive
5	CTHRC1 (collagen triple helix repeat containing 1)	0	inactive
6	LOC402506	0	inactive
7	EXO1 (exonuclease 1)	-1	inactive
8	GTPBP6 (GTP binding protein 6)	1	inactive
9	LOC389753	-1	inactive
10	UBL7 (ubiquitin like 7)	0	inactive
11	HES7 (hes family bHLH transcription factor 7)	0	inactive
12	RANBP1 (RAN binding protein 1)	1	inactive
13	STING1 (stimulator of interferon response cGAMP interactor 1)	0	inactive
14	CACFD1 (calcium channel flower domain containing 1)	1	inactive
15	RBKS (ribokinase)	2	active
16	LOC391613	0	inactive
17	ABCG2 (ATP binding cassette subfamily G member 2 (JR blood group))	0	inactive
18	VIL1 (villin 1)	0	inactive
19	HYAL1 (hyaluronidase 1)	0	inactive
20	LOC390250 (RNA polymerase II, I and III subunit E pseudogene)	0	inactive
21	LOC440093	0	inactive
22	IFNA8 (interferon alpha 8)	0	inactive
23	LOC389403	1	inactive
24	ATP1A4 (ATPase Na+/K+ transporting subunit alpha 4)	0	inactive
25	RPL30 (ribosomal protein L30)	0	inactive
26	VAMP7 (vesicle associated membrane protein 7)	-1	inactive
27	LOC138729	0	inactive
28	LOC440772	0	inactive
29	LOC401098 (retired record)	0	inactive
30	PPP1R21 (protein phosphatase 1 regulatory subunit 21)	0	inactive
31	UNK (unk zinc finger)	0	inactive
32	LRRC49 (leucine rich repeat containing 49)	0	inactive
33	USP15 (ubiquitin specific peptidase 15)	1	inactive
34	GIT1 (GIT ArfGAP 1)	1	inactive
35	PAH (phenylalanine hydroxylase)	0	inactive
36	ADAMTS6 (ADAM metallopeptidase with thrombospondin type 1 motif 6)	1	inactive
37	LOC441769	1	inactive
38	FXYD4 (FXYD domain containing ion transport regulator 4)	-1	inactive
39	FCRL3 (Fc receptor like 3)	0	inactive
40	NUMA1 (nuclear mitotic apparatus protein 1)	-1	inactive
41	SKI (SKI proto-oncogene)	0	inactive
42	POSTN (periostin)	0	inactive
43	ZFAND2A (zinc finger AN1-type containing 2A)	1	inactive
44	PSMA3-AS1 (PSMA3 antisense RNA 1)	0	inactive
45	SLC5A11	0	inactive
46	GPR157 (G protein-coupled receptor 157)	0	inactive
47	CDKL4 (cyclin dependent kinase like 4)	1	inactive
48	S100A5 (S100 calcium binding protein A5)	1	inactive
49	NPAS4 (neuronal PAS domain protein 4)	-1	inactive
50	MTREX (Mtr4 exosome RNA helicase)	0	inactive
51	CDK5RAP2 (CDK5 regulatory subunit associated protein 2)	0	inactive
52	PALD1 (phosphatase domain containing paladin 1)	0	inactive
53	L3MBTL3 (L3MBTL histone methyl-lysine binding protein 3)	1	inactive
54	LOC339693	0	inactive
55	ERVMER61-1 (endogenous retrovirus group MER61 member 1)	1	inactive
56	MEAK7 (MTOR associated protein MEAK7)	0	inactive
57	LOC144631	1	inactive

Single entries from above.
ADAMTS6 (ADAM metallopeptidase with thrombospondin type 1 motif 6), two-siRNA summed score (-2 to +2): 1
For “two-siRNA summed score (-2 to +2)”, RILPL1 (Rab interacting lysosomal protein like 1) has 0
Value of RBKS (ribokinase) in “two-siRNA summed score (-2 to +2)”: 2
Under “two-siRNA summed score (-2 to +2)”, STING1 (stimulator of interferon response cGAMP interactor 1) reads 0
Value for CTHRC1 (collagen triple helix repeat containing 1) under “Call”: inactive
GTPBP6 (GTP binding protein 6), two-siRNA summed score (-2 to +2) = 1
